Results taken from publication PMC8620709.

Experiments:
[1] = target: T1, cytosolic phospholipase A2 alpha (mouse (endogenous in spinal cord)) (UniProt P47713); assay: co-IP; spinal cord lysates (100 µg) of SOD1^G93A mice at disease onset (13 weeks), symptomatic stage (18 weeks) or end stage; IP buffer (50 mM Tris-HCl pH 7.4, 150 mM NaCl, 1 mM EDTA, 0.5% Nonidet P-40); overnight with cPLA2α antibodies cross-linked to magnetic beads; blot for cPLA2α and mutant …
T1 sequence: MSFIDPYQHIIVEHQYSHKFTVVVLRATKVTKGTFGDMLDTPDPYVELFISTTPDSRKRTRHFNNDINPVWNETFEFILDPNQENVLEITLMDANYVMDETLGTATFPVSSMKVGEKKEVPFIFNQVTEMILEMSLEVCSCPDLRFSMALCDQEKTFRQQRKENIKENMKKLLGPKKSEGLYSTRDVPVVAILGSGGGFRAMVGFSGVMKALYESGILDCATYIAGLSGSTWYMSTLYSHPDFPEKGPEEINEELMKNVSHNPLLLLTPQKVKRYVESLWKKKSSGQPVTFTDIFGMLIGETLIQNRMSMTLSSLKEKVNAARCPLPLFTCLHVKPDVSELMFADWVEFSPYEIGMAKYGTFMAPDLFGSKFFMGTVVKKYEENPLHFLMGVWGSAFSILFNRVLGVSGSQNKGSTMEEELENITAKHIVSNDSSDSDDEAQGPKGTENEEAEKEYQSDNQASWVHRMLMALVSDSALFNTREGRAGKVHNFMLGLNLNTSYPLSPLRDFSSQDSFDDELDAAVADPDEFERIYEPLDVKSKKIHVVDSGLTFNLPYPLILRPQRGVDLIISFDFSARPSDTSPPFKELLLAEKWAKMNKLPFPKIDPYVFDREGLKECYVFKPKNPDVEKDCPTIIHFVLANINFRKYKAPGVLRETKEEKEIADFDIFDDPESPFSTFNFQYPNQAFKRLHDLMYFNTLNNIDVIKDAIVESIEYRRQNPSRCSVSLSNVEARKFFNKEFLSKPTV

[2] = target: T1, cytosolic phospholipase A2 alpha (mouse (endogenous in spinal cord)); assay: condition: only spinal cord lysates of 6 weeks old mice; co-IP; spinal cord lysates (100 µg) of 6 weeks old pre-symptomatic SOD1^G93A mice; IP buffer (50 mM Tris-HCl pH 7.4, 150 mM NaCl, 1 mM EDTA, 0.5% Nonidet P-40); overnight with cPLA2α antibodies cross-linked to magnetic beads; blot for cPLA2α and mutant SOD1

Substance: mutant SOD1^G93A (human Cu/Zn superoxide dismutase with G93A)
- binding [1]: binds
- binding [2]: no binding

These are yes or no findings as the source states them, for the method shown. Binding seen in cells or lysates may run through a third protein. For some assays here: A result given as binding can be weak or reduced; the word gives no strength.
